No constants are given. Whether binding was seen depends on the method and setting.
Biological target: PKC-ε
Experiment: EDC cross-linking of the kinase reaction mixture, SDS-PAGE and MS/MS

binding: no binding
Binder: RQPKIWFPNRRKPWKKRPRPDDLEI (biotin tag (biotin-alpha CT1) in the cross-linking, SPR and kinase assays) [alpha CT1]

Source: patent US20250221936A1, “ENGINEERED HEMICHANNELS, ENGINEERED VESICLES, AND USES THEREOF” (VIRGINIA TECH INTELLECTUAL PROPERTIES, INC., priority 2018, published 2025)
